# From PubChem BioAssay AID2685 (National Center for Advancing Translational Sciences (NCATS), 2010)
# Hit rate of the full screen: of about 320,000 compounds, about 2,100 (0.66%) were called active. Inconclusive means that the source gave no clear call. Such entries were picked first, then a sample of the others. Calls come from the whole dose curve; as a rule, active = well fitted inhibition curve with a large enough effect in the signal ratio, with a control signal flat (not every such curve was filed as active); inconclusive = small, poorly fitted or top-dose-only effect, or effect the other way, or a change in a side signal; inactive = flat fitted curve, though single readings scatter; the % refers to the signal ratio. Potencies beside an inconclusive call are fits to weak or partial responses and may not hold up.
# Assay: qHTS Assay for Lipid Storage Modulators in Drosophila S3 Cells
# Conditions: BODIPY lipid droplet fluorescence, 18-24 h, cells fed with added oleic acid; lipid storage change, negative = inhibition: at 46.1 µM (top of the series) unless noted
# Procedure, shortened: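 Drosophila S3 cells got compounds at several concentrations plus oleic acid (400 uM solution). Laser-scanning cytometry with 488 nm excitation read lipid droplets at 500-530 nm and cells at 575-640 nm. Percent activity was relative to 20 uM Triacsin C.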
# % is set by controls: 0 for no effect and ±100 for the full control effect; potency is the fitted concentration of half-maximal effect.
Structure (SMILES),"lipid storage change, negative = inhibition",Potency,outcome
COc1cc2cnc(-c3ccsc3)c(-c3ccc(F)cc3)c2cc1OC,inconclusive: 6.18%,,
COc1ccc(C(=O)NCC(=O)OCC(=O)c2ccc3c(c2)OCCO3)cc1,inconclusive: 3.62%,,
O=C(C(=O)N1CCN(c2ccccc2F)CC1)c1c[nH]c2ccccc12,inconclusive: -7.82%,,
COc1cccc(NC(=O)Nc2cc(C)on2)c1,,"inconclusive: 18.4 µM [falling, single point]",
Cc1cc(OCCn2cnc3ccccc3c2=O)cc(C(C)C)c1,inconclusive: -28.3%,,
COc1cccc(N2C(=O)Nc3ccccc3C2(O)C(=O)NCc2ccc3c(c2)OCO3)c1 (stereo unspecified),inconclusive: -8.64%,,
Cc1cc(OC(=O)c2ccc(Cl)cc2Cl)c([N+](=O)[O-])c(=O)[nH]1,inconclusive: -29%,,
O=c1c2ccccc2nc2c3ccccc3ncn12,inconclusive: 61%,,
COc1ccccc1CNC(=O)C1CC2Cn3c(nc4cc(C)c(C)cc43)C2N1C (stereo unspecified),inconclusive: 13.8%,,
CCN(CC)S(=O)(=O)c1ccc(N/N=C(\C)c2ccc3c(c2)OCO3)c([N+](=O)[O-])c1,,"inconclusive: 6.51 µM [activator, partial curve]",
COc1ccc(C)cc1S(=O)(=O)NCC(c1cccnc1)N1CCc2ccccc2C1 (stereo unspecified),,"inconclusive: 0.731 µM [activator, single point]",
O=C1C(Cl)=C(Nc2cccc(O)c2)C(=O)N1Cc1ccccc1,,"inconclusive: 0.0046 µM [falling, full curve, poor fit]",
CCOC(=O)C1=C(C)C(c2ccc(OC)cc2)NC(=S)N1 (stereo unspecified),,"inconclusive: 11.6 µM [rising, partial curve]",
O=C(Cc1ccccc1F)Nc1nc(-c2ccc(F)c(F)c2)cs1,inconclusive: 55.1%,,
COc1cc2c(cc1OC)C1=C(C#N)CCC(=NC(=O)c3ccco3)N1CC2,inconclusive: -19.2%,,
COc1ccc(S(=O)(=O)N2CCOCC2)cc1NC(=O)c1cc(=O)[nH]c2ccccc12,,"inconclusive: 29.1 µM [activator, single point]",
O=C(NCCCN1CCOCC1)c1ccc(Cl)cc1[N+](=O)[O-],inconclusive: 23.3%,,
COc1ccc(-c2ccc(C(C)=O)cc2)cc1[C@H]1[C@@H]2C=CCC[C@@]2(C)C(=O)N1Cc1ccccc1,inconclusive: 11.6%,,
CC#CCN(Cc1ccco1)C(=O)c1ccc(OC2CCN(Cc3ccccn3)CC2)cc1,inconclusive: -12.9%,,
OCC[C@H]1C[C@H](O)[C@@H](O)[C@]2(Cc3ccccc3O2)O1,inconclusive: -17.1%,,
COc1ccccc1C(=O)N1CCN(Cc2nc3cc([N+](=O)[O-])ccc3n2C)CC1,inconclusive: 145%,,
CCC(C)(C)NC(=O)C(c1ccc(OC)cc1)N(C(=O)CCC(=O)Nc1cc(C)on1)c1cccc(F)c1 (stereo unspecified),inconclusive: -30.3%,,
Brc1cccc(Nc2nc(-c3cccnc3)cs2)c1,inconclusive: 7.67%,,
COc1ccc(OC)c(-c2cc(C(=O)Nc3c(C)nn(Cc4ccccc4)c3C)no2)c1,inconclusive: 18.8%,,
CCOC(=O)c1c(SC)nc(SC)c2c1CCC2,inconclusive: -98.5%,,
CC(C)=C1SC(N2CCN(c3cccc(C(F)(F)F)c3)CC2)=NC1=O,inconclusive: -3.85%,,

# Entries above containing an aryl methoxy group, in the order listed:
Structure (SMILES),"lipid storage change, negative = inhibition",Potency,outcome
COc1cc2cnc(-c3ccsc3)c(-c3ccc(F)cc3)c2cc1OC,inconclusive: 6.18%,,
COc1ccc(C(=O)NCC(=O)OCC(=O)c2ccc3c(c2)OCCO3)cc1,inconclusive: 3.62%,,
COc1cccc(NC(=O)Nc2cc(C)on2)c1,,"inconclusive: 18.4 µM [falling, single point]",
COc1cccc(N2C(=O)Nc3ccccc3C2(O)C(=O)NCc2ccc3c(c2)OCO3)c1 (stereo unspecified),inconclusive: -8.64%,,
COc1ccccc1CNC(=O)C1CC2Cn3c(nc4cc(C)c(C)cc43)C2N1C (stereo unspecified),inconclusive: 13.8%,,
COc1ccc(C)cc1S(=O)(=O)NCC(c1cccnc1)N1CCc2ccccc2C1 (stereo unspecified),,"inconclusive: 0.731 µM [activator, single point]",
CCOC(=O)C1=C(C)C(c2ccc(OC)cc2)NC(=S)N1 (stereo unspecified),,"inconclusive: 11.6 µM [rising, partial curve]",
COc1cc2c(cc1OC)C1=C(C#N)CCC(=NC(=O)c3ccco3)N1CC2,inconclusive: -19.2%,,
COc1ccc(S(=O)(=O)N2CCOCC2)cc1NC(=O)c1cc(=O)[nH]c2ccccc12,,"inconclusive: 29.1 µM [activator, single point]",
COc1ccc(-c2ccc(C(C)=O)cc2)cc1[C@H]1[C@@H]2C=CCC[C@@]2(C)C(=O)N1Cc1ccccc1,inconclusive: 11.6%,,
COc1ccccc1C(=O)N1CCN(Cc2nc3cc([N+](=O)[O-])ccc3n2C)CC1,inconclusive: 145%,,
CCC(C)(C)NC(=O)C(c1ccc(OC)cc1)N(C(=O)CCC(=O)Nc1cc(C)on1)c1cccc(F)c1 (stereo unspecified),inconclusive: -30.3%,,
COc1ccc(OC)c(-c2cc(C(=O)Nc3c(C)nn(Cc4ccccc4)c3C)no2)c1,inconclusive: 18.8%,,

# The list continues.

Structure (SMILES),"lipid storage change, negative = inhibition",Potency,outcome
Cc1ccc(C(=O)C2CCN(CC(=O)NC3CCCC3)CC2)cc1,inconclusive: -20.8%,,
CCCNC(=O)C1CC(c2ccccc2C(F)(F)F)=NO1 (stereo unspecified),inconclusive: 12%,,
O=C(COC(=O)CCC1CCCC1)NCc1ccc(Cl)cc1,inconclusive: -25%,,
CCCn1c(=N)c(C(=O)NC2CCCC2)cc2c(=O)n3cccc(C)c3nc21,inactive: -0.957%,,
COc1ccc(C2CC(c3cccs3)=NN2C(=O)CCC(=O)O)cc1 (stereo unspecified),inactive: 2.58%,,
CS(=O)(=O)N1CCN=C1SCc1ccc(F)cc1,inconclusive: 284%,,
CCCCC(=O)Nc1nc(C)c(C(C)=O)s1,inconclusive: -12.8%,,
Cc1nn(C)c(C)c1NS(=O)(=O)c1ccccc1Cl,,"inconclusive: 29.1 µM [rising, single point]",
Cc1cc(C)cc(OCC(=O)NNC(=O)CN2C(=O)c3ccccc3C2=O)c1,inconclusive: -20.7%,,
COc1ccc(C(=O)C2CCN(CC(=O)Nc3ccc(OC)cc3OC)CC2)cc1,inconclusive: -83.5%,,
CCCCn1c(N)c(N(CCOC)C(=O)c2cc(C)oc2C)c(=O)[nH]c1=O,,"inconclusive: 2.06 µM [activator, full curve]",
COc1cc2[nH]cc(C(=O)NCc3ccccc3)c(=O)c2cc1OC,,"inconclusive: 20.6 µM [falling, partial curve, poor fit]",
CC(C)NC(=O)CSc1ccccc1C(=O)NNC(=O)Cn1ccc(C(F)(F)F)n1,inconclusive: 21.8%,,
CCc1ccc(NC(=O)Nc2ccc3c(c2)N(C)C(=O)CS3)cc1,,"inconclusive: 29.1 µM [cytotoxic, single point]",
CCOC(=O)Cc1csc(NS(=O)(=O)c2cc(Cl)ccc2Cl)n1,,"inconclusive: 7.31 µM [activator, partial curve]",
COc1ccccc1NC(=O)CSc1nc2ccccc2nc1N1CC(C)OC(C)C1 (stereo unspecified),,"inconclusive: 13 µM [activator, partial curve, poor fit]",
CC(=O)OCC(=O)Nc1c(C)cc(C)cc1C,inconclusive: -3.09%,,
Cc1ccnc2nc(C(=O)OCC(=O)NC3CCC(C)CC3)nn12 (stereo unspecified),inconclusive: 50%,,
C/C(CCC(=O)OC[C@H]1O[C@H](C#Cc2ccccc2)C=C[C@@H]1Oc1ccc(C)cc1)=N\OC[C@@H](O)[C@H]1O[C@@H]2OC(C)(C)O[C@@H]2[C@H]1O,inconclusive: -9.25%,,
COc1ccccc1N1CCN(c2ncnc3sc(C(=O)NCC4CCCO4)c(C)c23)CC1 (stereo unspecified),inconclusive: -100%,,
CSCc1cc(N(C)c2ccccc2)nc(-c2ccccc2)n1,inconclusive: 16.8%,,
C=CCn1c(SCC(=O)NCCc2ccccc2)nnc1C1CC1,inconclusive: 69.4%,,
C=C(C)CNC(=S)N=Nc1c(O)[nH]c2ccc([N+](=O)[O-])cc12,,"inconclusive: 0.103 µM [rising, full curve, poor fit]",
CC(=O)N(C)c1ccc(NC(=O)COc2ccc(Br)cc2C)cc1,inconclusive: 2.01%,,
COc1cccc(C2c3c(oc4ccc(Cl)cc4c3=O)C(=O)N2c2cc(C)on2)c1OC (stereo unspecified),inconclusive: 37.9%,,
CC(C)CN1CCNC(=O)C1CC(=O)NCCc1ccc(C(F)(F)F)cc1 (stereo unspecified),inconclusive: -9.79%,,

Structure (SMILES),"lipid storage change, negative = inhibition",Potency,outcome
CCN(CC(=O)Nc1ccccc1C(F)(F)F)C(=O)CCOc1ccc(C)cc1,,"inconclusive: 29.1 µM [falling, single point]",
CCOCC(=O)Nc1ccc(S(=O)(=O)NCC2CCCO2)cc1 (stereo unspecified),inconclusive: 35%,,
COc1ccc(C(=O)NCCCNC(=O)c2ccc(C)nc2)cc1,,"inconclusive: 0.164 µM [falling, full curve, poor fit]",
Cc1cc(C(=O)COC(=O)c2cc(Cl)ccc2N)c(C)n1Cc1ccco1,inconclusive: 30.1%,,
COc1ccc(CCn2c(N3CCN(C)CC3)nc3c2c(=O)[nH]c(=O)n3C)cc1,inconclusive: 57% [activator],,
COc1cc(NC(=O)c2ccccc2)c(OC)cc1NC(=O)CN1C(=O)N(C)C2(CCCCC2)C1=O,inconclusive,,
Cc1cc(NC(=O)CSc2nc(-c3ccccc3Cl)nc3c2c(=O)n(C)c(=O)n3C)no1,inconclusive: -12.7%,,
O=C(NCCCN1CCN(c2cccc(Cl)c2)CC1)C1CCC(=O)N1Cc1ccccc1Cl (stereo unspecified),inconclusive: -39.4%,,
O=C(NCCN1CCOCC1)c1ccc(CS(=O)c2ccccc2Cl)o1 (stereo unspecified),,active: 4.11 µM,
Nc1nc(SCC(=O)NCCCN2CCOCC2)nc2sc3c(c12)CCC3,inconclusive: -6.76%,,
COCCCNC(=S)N/N=C/c1ccccc1O,inconclusive: 3.8%,,
Cc1ccc(N)cc1CN1CCCC1=O,inconclusive: 24.8%,,
COc1ccc(OC)c(C(c2nnnn2C(C)(C)C)N2CCc3ccccc3C2)c1 (stereo unspecified),inconclusive: 24.1% [at 9.22 µM],,
C=CCn1c(=S)[nH]c2ccc(Br)cc2c1=O,,"inconclusive: 2.06 µM [activator, partial curve]",
Cc1ccc2nc3c(cc(C(=O)NCCc4ccccc4)c(=N)n3CC3CCCO3)c(=O)n2c1 (stereo unspecified),,"inconclusive: 6.51 µM [falling, single point]",
CC1CCN(C(=O)CSCc2ccc(Cl)cc2)CC1,inconclusive: 45.8%,,
O=S(=O)(NCCC1=CCCCC1)c1ccccc1Br,inconclusive: 62.7% [activator] [at 0.0737 µM],,
Cc1ccc(C(=O)NNC(=O)CSc2nnc(-c3ccccc3)n2Cc2ccccc2)cc1,inconclusive: -5.07%,,
COc1ccc(C(=O)N/N=C(\C)CC(=O)Nc2ccc3c(c2)OCCO3)c(OC)c1,,,inactive [at 46.1 µM]
CCCn1nc(C(=O)N2CC(=O)Nc3ccccc32)c2ccccc2c1=O,inconclusive: 30.1%,,
COCCCN1C(=O)C(O)=C(C(=O)c2ccco2)C1c1ccc(Br)cc1 (stereo unspecified),,"inconclusive: 0.651 µM [falling, single point]",
COc1cccc(C(C(=O)NC(C)(C)C)N(Cc2ccc(C)cc2)C(=O)CCC(=O)Nc2cc(C)on2)c1OC (stereo unspecified),,"inconclusive: 0.164 µM [activator, full curve]",
CN(C(=O)C1CCN(S(=O)(=O)c2cccs2)CC1)C1CCCCC1,inconclusive: -39.4%,,
c1ccc(-n2ncc3c2ncn2nc(-c4ccco4)nc32)cc1,inconclusive: 17.6%,,
